Measured values from publication PMC10450178.

Assays:
[1] = biological target: hen egg-white lysozyme (HEL) (Gallus gallus) (UniProt P00698); assay: BLI; conditions: all-HNA; Buffer R: 20 mM HEPES pH 7.5, 20 mM NaOAc, 140 mM KOAc, 3 mM Mg(OAc)2, 0.1% Tween20; BLI temperature not stated; commercial protein; protein details: biotin (NHS-PEG4); synthetic backbone; letters put together from the description
[2] = biological target: hen egg-white lysozyme (HEL) (hen) (UniProt P00698); assay: BLI; conditions: all-HNA; Buffer R: 20 mM HEPES pH 7.4-7.5, 20 mM NaOAc, 140 mM KOAc, 3 mM Mg(OAc)2, 0.1% Tween20; commercial protein; protein details: biotin (NHS-PEG4 for BLI); synthetic backbone; letters put together from the description
[3] = biological target: hen egg-white lysozyme (HEL) (hen) (UniProt P00698); assay: SPR; conditions: 200 nM, used to define background; all-HNA; Buffer R: 20 mM HEPES pH 7.4-7.5, 20 mM NaOAc, 140 mM KOAc, 3 mM Mg(OAc)2, 0.1% Tween20; SPR at 20 C, BLI temperature not stated; commercial protein; protein details: biotin (NHS-PEG4 for BLI); synthetic backbone; letters put together from the description
HEL R73A R91A (hen) = HEL R73A R91A (hen) (UniProt P00698); assay: BLI; conditions: 100 nM core14; all-HNA (1',5'-anhydrohexitol); Buffer R: 20 mM HEPES pH 7.4-7.5, 20 mM NaOAc, 140 mM KOAc, 3 mM Mg(OAc)2, 0.1% Tween20; recombinant protein; protein details: biotin (NHS-PEG4); synthetic backbone
[4] = biological target: HEL position 66 alanine mutant D84A (hen) (UniProt P00698); assay: BLI; conditions: 100 nM core14, hotspot; all-HNA (1',5'-anhydrohexitol); Buffer R: 20 mM HEPES pH 7.4-7.5, 20 mM NaOAc, 140 mM KOAc, 3 mM Mg(OAc)2, 0.1% Tween20; recombinant protein; protein details: biotin (NHS-PEG4); synthetic backbone
HEL R61A R79A (hen) = HEL R61A R79A (hen) (UniProt P00698); assay: BLI; conditions: 100 nM core14; all-HNA (1',5'-anhydrohexitol); Buffer R: 20 mM HEPES pH 7.4-7.5, 20 mM NaOAc, 140 mM KOAc, 3 mM Mg(OAc)2, 0.1% Tween20; recombinant protein; protein details: biotin (NHS-PEG4); synthetic backbone
HEL K1A K19A (hen) = HEL K1A K19A (hen) (UniProt P00698); assay: BLI; conditions: 100 nM core14; all-HNA (1',5'-anhydrohexitol); Buffer R: 20 mM HEPES pH 7.4-7.5, 20 mM NaOAc, 140 mM KOAc, 3 mM Mg(OAc)2, 0.1% Tween20; recombinant protein; protein details: biotin (NHS-PEG4); synthetic backbone

## GTTCGTTTAAATGTGTGTCGTCATTCGCTATCC [core13 G23A]
[1]
  binding result: no binding

## GTTCGTTTAAATATGTGTCGTCGTTCGCTATCC [core13 G13A]
[2]
  binding result: binds more weakly

## AGGTAGTGCTGTTCGTTCATCTCAAATCTAGTTCGCTATCCAGTTGGC [T5-S8-7 (anti-TAR HNA aptamer)]
[3]
  binding result: no binding

## GTCCGTTTAAATGTGTGTCGTCGTTCGCTATCC [core13 T3C]
[1]
  binding result: no binding

## GTTCGTTTAAGTGTGTGTCGTCGTTCGCTATCC [core13 A11G]
[1]
  binding result: no binding

## GTGCTGTTCGTTTAAATGTGTGTCGTCGTTCGCTATCC [LYS-S8-19-core14 (HNA)]
HEL R73A R91A (hen)
  binding result: binds more weakly
[4]
  binding result: binds more weakly
HEL R61A R79A (hen)
  binding result: binds more weakly
HEL K1A K19A (hen)
  binding result: binds more weakly

## GTTCGTTTAAATGTGTGTCATCGTTCGCTATCC [core13 G20A]
[1]
  binding result: no binding

## GACTTGCGTGGTTCTATTGTTACCGTTCGTCAT [core13 scrambled]
[3]
  binding result: no binding

## GTTCGTTTAAATGTGTGTCGTCGTTCCCTATCC [core13 G27C]
[2]
  binding result: binds more weakly

For part of these data: A negative result means that nothing was seen under these conditions. For part of these data: At least one verdict was read from the data and is not stated in words by the source. For part of these data: The comparison behind a weaker result is the experiment's own reference, which may not be listed here. For part of these data: Construct, isoform or probe ends are uncertain for at least one entry.
